Test system: AMPA receptors in the brain
Experiment: PET imaging in medial temporal lobe epilepsy patients
Assay type: in vivo, human
Description: PET imaging was performed on medial temporal lobe epilepsy patients of three examples. […] Absorption correction CT imaging was performed for about one minute, and then [^11C] K-2 of about 370 MBq was administered intravenously over one minute. Thereafter, imaging was performed for 90 minutes. For the imaging, the PET/CT device “Aquiduo” (Toshiba Medical Systems Corporation) was used. In list data which was collected, dynamic images were reconstructed by the OS-EM method.
The reconstructed image was analyzed with the PMOD image analysis software (PMOD technologies) by integrating a PET image on a standardized MRI image. As the reconstructed image, a SUVR (standardized uptake value ratio) image was used. The SUVR image was produced by dividing an addition average image for 20 minutes until the elapse of 30 to 50 minutes since the administration of the PET drug by the average value of the amount of radiation for the same time which was accumulated in corpus callosum that was a reference region.
The reconstructed image was analyzed with the PMOD image analysis software (PMOD technologies) by integrating a PET image on a standardized MRI image. As the reconstructed image, a subtraction image was used so as to produce a reconstructed image as follows. An average image (image including a large number of specific bonds to the AMPA receptors) for 20 minutes from the elapse of 30 minutes (an example of the first time) to the elapse of 50 minutes (an example of the second time) since the administration of the PET drug and an average image (image including a large amount of blood flow ingredient) for 1 minute from the elapse of 1.5 minutes to the elapse of 2.5 minutes were calculated. In each time period, by division by the average value of the amount of radiation accumulated in the entire brain, the SUVR image in which the entire brain was the reference region was calculated. From the SUVR image for 20 minutes from the elapse of 30 minutes to the elapse of 50 minutes since the administration of the PET drug, the SUVR image for 1 minute from the elapse of 1.5 minutes to the elapse of 2.5 minutes was subtracted, and thus a difference was calculated, with the result that the subtraction image was produced. […]
The reconstructed image was analyzed with the PMOD image analysis software (PMOD technologies) by integrating VOIs including a plurality of regions of frontal lobe, temporal lobe, occipital lobe, parietal lobe, hippocampus, amygdala, putamen, corpus callosum, cerebellum, bridge and the like with one formed on a standardized MRI image. […] In each time period, by division by the average value of the amount of radiation accumulated in the entire brain, the SUVR image in which the entire brain was the reference region was calculated. […]

[11CH3]N(CCSc1cc(F)c(OCC(N)=O)c(F)c1)S(=O)(=O)c1ccccc1 [[^11C] K-2, [4-[2-(benzenesulfonyl-[^11C]methyl-amino)-ethylsulfanyl]-2,6-difluorophenoxy]-acetamide]
accumulation in medial temporal lobe on a focus side, SUVR image (30 to 50 minutes after administration, reference region corpus callosum, FIG. 15): high accumulation | accumulation in medial temporal lobe on the focus side, subtraction image (SUVR 30-50 minutes minus SUVR 1.5-2.5 minutes, entire brain as reference, FIG. 16): high accumulation | Asymmetry index (AI), [11C] K-2 subtraction images compared with SUVR image of FDG (medial temporal lobe epilepsy patients, FIG. 18): significantly high value | Asymmetry index (AI), epilepsy patient compared with healthy person (subtraction images, temporal lobe VOIs, FIG. 17): significantly high AI
